Measurements from “University of Dundee, Small-Polar-MMV Screening Library” (2021), ChEMBL document CHEMBL3988442.

Mtb growth Cornell: 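Whole-cell assay for inhibitors of Mycobacterium tuberculosis growth, labelled Cornell in the record; the read-out is not stated. The concentration is filed as 10 mM, unlikely as a test dose, so the dose is not known. Higher means stronger inhibition (inferred from two other growth screens of the library). About 53,000 compounds were tested under these conditions; 1.7% (about 900) showed 50% or more at least once.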
Mtb heat-shock: 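Assay on Mycobacterium tuberculosis, filed only as a heat shock assay from Cornell; the read-out is not stated. The concentration is filed as 10 mM, unlikely as a test dose, so the dose is not known. Direction is inferred from retests: higher values go with stronger inhibition. Of about 69,000 compounds tested this way, about 930 (1.4%) reached 50% or more in at least one test.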

Results are given as percent effect. The record does not define 0% and 100%; most values in the screen are far below 50% and negative numbers occur (in some assays of this library far below -100). Compounds were drawn at random from those tested, without regard to their results. A dash means the value is not listed here; it may have been measured.

Compound | Mtb growth Cornell | Mtb heat-shock
CC(=O)N1CCN([C@@H]2CC[C@@H](N(C)C(=O)C3CCCCC3)[C@H]2O)CC1 | - | 13.94%
Cc1nc(C)n(CC2CCCN2Cc2nc3ccccc3s2)n1 (stereo not drawn) | 12.29% | 15.84%
CC(=O)c1cccc(OCCCC(=O)NCC2CCCN2C)c1 (stereo not drawn) | - | 4.867%
Cc1ccc(N2CCC(C(=O)NC3CCc4nccn4C3)CC2)nc1 (stereo not drawn) | -19.62% | -30.25%
O=C(O)C(F)(F)F.[H][C@@]12CN(Cc3cccs3)CCC[C@]1(C(=O)O)CN(c1ncccn1)C2 | 15.78% | -36.77%
CCc1nc(C(=O)N2CCN(C(=O)CCc3ccccc3)CC2)c[nH]1 | 10.35% | 0.8237%
CC(c1ccccc1)n1c(SCC(=O)O)nnc1-c1ccn[nH]1 (stereo not drawn) | 15.02% | 6.864%
CC(C(=O)NCc1ccnc(OC2CCCC2)c1)n1cncn1 (stereo not drawn) | -34.83% | -8.235%
CC(C)CN(Cc1nnc(-c2ccco2)o1)CC(C)C | - | 9.21%
Cc1cccc(-n2cc(C(=O)N3CCCC(n4ccnc4)C3)nn2)c1 (stereo not drawn) | - | -9.714%
COc1cc(C(=O)NCC2CC2)nc2c(C)cc(F)cc12 | 17.39% | 2.397%
Cc1cc(C(F)(F)F)nc(CNC(=O)CCC2CCCN(C)C2)n1 (stereo not drawn) | 33.73% | 0.85%
O=c1[nH]c(-c2ccccc2)nc2c1CCN(S(=O)(=O)N1CCCC1)C2 | 40.59% | 5.135%
c1csc(CCNC2CCc3ncnn3C2)c1 (stereo not drawn) | 37.73% | 23.37%
Fc1cccc(Cl)c1CNCCCOc1ccccn1 | 44.4% | -11.57%
CSc1ccc(C(=O)C2CCCN(C(=O)CCn3cncn3)C2)cc1 (stereo not drawn) | 10.63% | -0.6928%
CCOc1ccc(Cl)cc1CCNC(=O)N1CCCC(CO)C1 (stereo not drawn) | - | 2.606%
CC(C)Nc1ncccc1C(=O)NC1CC(=O)N(CC(F)(F)F)C1 (stereo not drawn) | 25.44% | -36.67%
Cn1cnc2c1C(C(=O)N1CCOCC1)N(C(=O)c1ccccc1)CC2 (stereo not drawn) | 26.51% | -9.064%
Cc1occc1C(=O)Nc1ccc(C(=O)NC[C@H]2CCCN2)cc1 | - | -170.2%
COCc1ccccc1CNCc1c(C(C)C)nn(C)c1N(C)C | - | 8.318%
CC(NCC1(N(C)C)CCOCC1)c1ccc(S(C)(=O)=O)cc1 (stereo not drawn) | 25.73% | 7.478%
Cc1nc(S(=O)(=O)NCCC(=O)NCc2ccc(C#N)cc2)cn1C | -12.2% | -21.94%
CC(=O)N1CC(=O)N(c2cnn(C)c2)CC12CCN(CC1CC1)C2.O=C(O)C(F)(F)F (stereo not drawn) | 12.46% | 3.22%
CC(NCC(N)=O)c1c(F)cccc1Cl (stereo not drawn) | 4.519% | 7.33%
CN(C)S(=O)(=O)N1CCN(c2ccnc(N3CCCC3)n2)CC1 | 12.56% | -1.867%
O=C(c1ccco1)N1Cc2cnn(CC3CC3)c2C(COCC2CC2)C1 (stereo not drawn) | -29.38% | 3.098%
CN(C)C(=O)C1CCN(c2cncc(-n3cccn3)n2)CC1 | -18.69% | -15.43%
O=C(O)C(F)(F)F.O=C(O)C(F)(F)F.O=C(c1c[nH]cn1)N1CCCn2c(CN3CCCCC3)nnc2C1 | -1.287% | -9.173%
COc1cc(C(=O)N2CCC(O)(CN3CCOCC3)C(C)(C)C2)ccn1 (stereo not drawn) | 24.26% | 0.877%
Cc1nn(C)c(C)c1CN(C(=O)c1cnc(O)cn1)C(C)C | 10.78% | 1.539%
COc1ccc(C(=O)N2CCCC(n3cc(C)cn3)C2)c(F)c1 (stereo not drawn) | 1.831% | -5.83%
O=C(C1CCC1)N1CCC(=O)N(C2CC2)Cc2cc(F)ccc21 | 3.515% | 39.59%
CC(=O)N1CCCC(c2ccnc(N(C)C)n2)C1 (stereo not drawn) | -19.51% | -9.688%
O=C(c1cncc(N2CCC3(CCCNC3)C2)n1)N1CCCC1 (stereo not drawn) | -7.332% | 16.72%
Cc1ccc(N2CCCC(N(C)c3ncnc4c3CCC4)C2)nn1 (stereo not drawn) | 10.22% | 1.672%
O=C(NCc1cccs1)c1nc2c(o1)CN(CC1CC1)C2.O=C(O)C(F)(F)F | 32.25% | -7.046%
CN1CSC[C@H]1C(=O)N1CCN(Cc2cccc(Cl)c2)CC1 | -4.638% | 10.99%
CCc1noc(C(C)N2CCC(N3CCCC3)CC2)n1 (stereo not drawn) | - | -7.37%
Cc1noc(C(C)N2CCN(Cc3noc(C4CC4)n3)CC2)n1 (stereo not drawn) | - | -11.9%
COc1ccc(-n2ccc(C(=O)NCCN3CCC(C)CC3)n2)cc1 | -7.071% | -13.29%
Cc1cc(N2CCN(CC(=O)N(C)C)CC2)nc(-c2ccncc2)n1 | -13.66% | -14.64%
O=S(=O)(Cc1ccccc1)NCc1ccco1 | -15.05% | 14.54%
COc1cccc(C(=O)NS(=O)(=O)c2cccc(C#N)c2)c1 | -0.5995% | 6.276%
COC(=O)[C@H](C)NC(=O)Cc1c(C)nc2c(c1C)c(=O)[nH]n2C | - | -4.987%
COc1cc(N2CCCn3cnc(COC(C)C)c3C2)ncn1.O=CO | -8.242% | -19.96%
Cc1cccc(-c2nc(CN3CCc4cnc(C)nc4C3)no2)c1 | 8.779% | 21.75%
CC1c2ncc(CNC(=O)C3CC3)n2CCN1Cc1ccsc1.O=C(O)C(F)(F)F (stereo not drawn) | 2.795% | -3.769%
Cl.Cn1cncc1CN1CCc2nc3sccc3c(=O)n2CC1 | 43.45% | -4.362%
COc1ccc2c(c1)C1(CCN(Cc3cnn(C)c3)CC1)N(C)CC2.O=C(O)C(F)(F)F | 1.9% | -3.749%
Cc1ccc(-c2ncc(C(=O)NCCNC(=O)C3CC3)s2)c(C)c1 | - | 2.868%
Cc1ccc2c(n1)N(Cc1ccncc1)CCN(S(C)(=O)=O)C2.O=C(O)C(F)(F)F.O=C(O)C(F)(F)F | 8.226% | -30.49%
c1ccc(CN2CCOC[C@H]2c2nc(-c3ccncc3)c[nH]2)nc1 | -4.087% | -12.74%
CN(C)C1CCC2(CCN(Cc3cccnc3)CC2)c2ccccc21.O=C(O)C(F)(F)F.O=C(O)C(F)(F)F.O=C(O)C(F)(F)F (stereo not drawn) | 21.29% | 14.32%
CCN1CCN(C(=O)Cn2nc(C(F)(F)F)c(Br)c2C2CC2)CC1 | -1.235% | -4.049%
CC[C@@]1(O)CCN(C(=O)CCc2cnn(C)c2)C[C@H]1O | 14.71% | 1.5%
O=C(NC(c1ccc(Cl)cc1)c1cccnc1)C1CC1 (stereo not drawn) | -0.7836% | 1.113%
CC(C)n1[nH]c(=O)c2c1NC(=O)CC2c1ccc(C#N)cc1 (stereo not drawn) | -28.12% | -30.52%
COc1cccc2cc(CNC(=O)N3CCCC(O)C3)oc12 (stereo not drawn) | -30.6% | -8.723%
Clc1cccc(-c2nc(CNC3CCc4ncnn4C3)co2)c1 (stereo not drawn) | -26.46% | -35.2%
CS(=O)(=O)NC1CC2(CCN(CCF)CC2)Oc2ccccc21.O=C(O)C(F)(F)F (stereo not drawn) | - | -21.63%
Cc1nccn1C1CCCN(C(=O)c2ccc(N3CCCC3)nn2)C1 (stereo not drawn) | 22.01% | -15.83%
CC(CN1CCOCC1)NC(=O)NCc1ccoc1 (stereo not drawn) | -10.25% | 18.31%
Brc1ccccc1-c1nnc(CNCCn2cccn2)o1 | - | -11.81%
CC(C)c1cc(C(=O)N(c2ccc(F)cn2)C2CCOCC2)nn1C | 32.7% | -10.83%
CCc1nc(CC(=O)N2CCCCC2Cn2cccn2)cs1 (stereo not drawn) | -17.26% | -21.1%
Cc1[nH]c2c(F)cccc2c1CC(=O)NCc1csc(N(C)C)n1 | -8.317% | -8.316%
O=C(CCc1cc2n(n1)CCCN(CCc1ccccc1)C2)NC1CC1 | 10.54% | -5.205%
CCN(CC)c1ccc2ccc(C(=O)N(C)C)cn12 | 2.067% | 2.738%
CC(Oc1ccccc1)C(=O)N1CCCN(Cc2cscn2)CC1 (stereo not drawn) | - | 14.99%
CC(C)n1ccnc1C1CCCN(c2ccccn2)C1 (stereo not drawn) | 18.12% | -7.415%

For reference, 4 entries once more:

| Compound | Mtb growth Cornell | Mtb heat-shock |
|---|---|---|
| `Cc1[nH]c2c(F)cccc2c1CC(=O)NCc1csc(N(C)C)n1` | -8.317% | -8.316% |
| `CCc1nc(CC(=O)N2CCCCC2Cn2cccn2)cs1` (stereo not drawn) | -17.26% | -21.1% |
| `CCN(CC)c1ccc2ccc(C(=O)N(C)C)cn12` | 2.067% | 2.738% |
| `CN(C)C(=O)C1CCN(c2cncc(-n3cccn3)n2)CC1` | -18.69% | -15.43% |